# Screening data, single-dose tests

From ChEMBL document CHEMBL3988442, “University of Dundee, Small-Polar-MMV Screening Library” (2021).

T. brucei: 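Whole-parasite assay of Trypanosoma brucei over 72 hours; the read-out is not stated. Concentration: 30 µM. Direction is inferred from retests: higher values go with stronger inhibition. Values scatter widely below zero; nearly all retest evidence comes from the higher of the two concentrations used. Of about 64,000 compounds tested this way, about 940 (1.5%) reached 50% or more in at least one test.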
Leishmania in macrophages: 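Cell assay of Leishmania donovani living inside macrophages; the read-out is not stated. Tested at 30 µM. The record gives no direction; compounds that gave an IC50 in retests scored well above the rest, so higher reads as stronger inhibition. Of about 69,000 compounds tested this way, about 1,000 (1.5%) reached 50% or more in at least one test.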

Values are the deposited “Percent Effect”, in %.
The record does not define 0% and 100%; most values in the screen are far below 50% and negative numbers occur (in some assays of this library far below -100).
The compounds are a random part of those screened.
Two or more numbers in one place are separate tests of the same structure; such repeats can differ widely.
A dash means the value is not listed here; it may have been measured.

SMILES | T. brucei | Leishmania in macrophages
CCCc1cc(N2CCC(NCCc3ccc(O)cc3)CC2)nc(C)n1 | - | 38.38
Cc1nonc1OCCNC(=O)COc1ccc(F)cc1F | -36.82 | 56.45
CCCC1CN(CCOc2ccccc2)C(=O)c2cccnc2O1 (stereo unspecified) | 10.27 | -26.38
O=C(O)C(F)(F)F.O=C(c1ccoc1)N1CCC2(CC1)COC(COc1ccccn1)C2 (stereo unspecified) | -177.5 | 6.924
O=C(O)C(F)(F)F.[H][C@@]12CCN(c3ncccn3)C[C@@]1([H])O[C@H](C(=O)NCCOC)C2 | -92.3 | -7.004
Cc1cc(C)c(CNC(=O)NCc2ccc(F)c(C)c2)c(=O)[nH]1 | -14.44 | 1.775
COC(=O)C(O)C1CCN(CCc2ccc(C)cc2)CC1 (stereo unspecified) | -29.93 | 2.305
CCS(=O)(=O)c1nnc([C@@H](N)Cc2ccccc2)o1 | -47.91 | 27.25
CS(=O)(=O)c1ccc(NC(=O)N2C[C@H](O)[C@@H](N3CCOCC3)C2)cc1 | -25.64 | -20.84
O=C(O)C(F)(F)F.[H][C@@]12COC[C@]1(c1nc(C)no1)CN(C(C)C)C2 | -28.64 | -7.536
O=C(NCC(O)c1ccccc1)Nc1cccs1 (stereo unspecified) | - | -6.469
O=C(CCc1ccccc1)C1CCCN(C(=O)c2ncc(F)cc2F)C1 (stereo unspecified) | -72.37 | 4.689
CCCC(N)CNS(=O)(=O)Cc1cccc(C#N)c1.Cl (stereo unspecified) | 63.71 | 26.88
COc1cccc(CCC2CCCN(C(=O)c3n[nH]c4c3CCC4)C2)c1 (stereo unspecified) | -14.85 | 40.68
CCOc1ccnc(N2CCN(C(=O)c3cn[nH]c3CC)CC2)n1 | -36.34 | 21.48
O=C(O)C(F)(F)F.O=C(O)C(F)(F)F.[H][C@@]12COC[C@@H](CC(=O)N3CCOCC3)[C@]1([H])CN(Cc1ccccn1)C2 | -19.4 | 4.444
Cc1ncc(CNC(CCO)C2CCCCC2)s1 (stereo unspecified) | -22.9 | -3.67
CN(C)CC(=O)N1CCC2(CCN(Cc3cccc(F)c3)CC2)C1 | 25.57 | 23.87
CC(C)c1nnc2n1CCN(C(=O)c1ccc(N(C)C)nn1)C2 | -16.02 | -47.52
O=C(NCC1CC1)Nc1cccc(N2CCN(CC3CC3)CC2)c1 | -29.43 | -6.352
Cc1noc(C)c1CNCc1ccccc1N(C)C1CCN(C)CC1 | 20.67 | 23.4
CC(C)CNC(=O)c1cc(C2CC2)nc2onc(C3CCNCC3)c12 | - | 4.242
CC1c2ncc(Cn3cncn3)n2CCN1C1CCOCC1.O=C(O)C(F)(F)F (stereo unspecified) | 13.88 | -18.3
CNc1cc(C)nc(C2COCCN2Cc2csc(C)n2)n1 (stereo unspecified) | -9.707 | 11.41
Cc1cc(N2CCCC(O)(CN(C)C(=O)CCN)C2)c2cnccc2n1 (stereo unspecified) | -11.94 | -35.12
O=C(O)C(F)(F)F.O=C(O)C(F)(F)F.[H][C@]12CCCN(c3ncc(C)cn3)[C@@]1([H])CN(CC(=O)N(C)C)C2 | 0.3039 | 21.93
Cc1nc(N2CCN(S(C)(=O)=O)CC2)cc(-n2cnc(C)c2C)n1 | -41.15 | 17.7
Cc1c(-c2cccs2)nn2c(O)c3c(nc12)CN(C(=O)C1CC1)C3 | 9.41 | 13.87
CC(C)OCCCNC(=O)CN1CCN(c2nccs2)C(C)C1 (stereo unspecified) | -58.97 | -20.56
CCOCCC(=O)N1CCc2cccc(S(=O)(=O)N3CCOCC3)c2C1 | -15.51 | 7.328
COCCN(C)C(C(=O)O)c1cc(Cl)ccc1OC (stereo unspecified) | -76.25 | -5.57
COc1ccc(OC)c(Sc2ncccc2C(=O)NCCSC)c1 | 10.48 | 28.53
CC(N)C(=O)N1CCC(Oc2cccc(C(F)(F)F)c2)CC1 (stereo unspecified) | 98.32 | 75.62
Cc1nnc(NC(=O)CN2CCCC2c2c(C)nn(C)c2C)s1 (stereo unspecified) | -22.56 | -9.894
O=C(O)C(F)(F)F.[H][C@@]12CCN(C(=O)c3ccsc3)[C@]1([H])CCC(=O)N2Cc1ccncc1 | -15.33 | -51.75
[H][C@@]12CCN(c3ncccn3)[C@@]1([H])CCN2Cc1cccs1 | -41.41 | 8.251 and 11.05
Cc1ccc(CNC(=O)c2cc(CN3CCC(O)CC3)on2)s1 | -10.61 | 7.377
CCc1cn[nH]c1C1CCN(c2cc(C)c3cc(OC)ccc3n2)CC1 | -14.36 | 21.22
O=C(CN1C(=O)CCC1=O)N1CCC(CSCc2ccco2)CC1 | -28.14 | -1.969
O=S(=O)(NCC1(O)CCOCC1)c1c(F)cccc1F | 10.3 | 7.694 and 17.03
CCN1CCN(c2ccc(CNC(=O)c3cnn(C)c3C)cn2)CC1 | 17.84 | 27.98
O=C1CCC(C(=O)N2CCOC(Cc3ccc(F)cc3)C2)=NN1 (stereo unspecified) | -6.722 | 25.3
CCCS(=O)(=O)N1CCCC(c2nc(-c3ccccc3)c[nH]2)C1 (stereo unspecified) | 3.15 | 31.53
CCN(CC)c1nc(C)cc(C(=O)Nc2cccc(C(N)=O)c2)n1 | -33.56 | -8.462
CC(=O)Nc1ccc(SCC(O)COCc2ccco2)cc1 (stereo unspecified) | - | -15.07
NC(=O)C(CNC(=O)CCc1ccsc1)Cc1ccc(F)cc1 (stereo unspecified) | -29.13 | 40.43
N#Cc1cccc(OCCN2CCCC2C(=O)N2CCSCC2)c1 (stereo unspecified) | -6.337 | 0.04337
Cc1nnn2c1COC(CNCc1ccncc1)C2 (stereo unspecified) | -51.12 | -4.795 and -0.6246
COCCNC(=O)Cn1cc(NC(=O)c2cccc(Cl)c2Cl)cn1 | 13.24 | 4.015
Cc1cc2c(cc1C)C(NC1CC1)CCCO2 (stereo unspecified) | -5.165 | 19.56
Cc1noc(CN(Cc2cccc(C#N)c2)Cc2ccco2)n1 | -2.943 | -9.737
CC(O)CN(Cc1cccc(C(=O)N(C)C)c1)c1ccccc1 (stereo unspecified) | 2.027 | 10.48

For reference, 4 entries once more:

SMILES,T. brucei,Leishmania in macrophages
Cc1nonc1OCCNC(=O)COc1ccc(F)cc1F,-36.82,56.45
COCCN(C)C(C(=O)O)c1cc(Cl)ccc1OC (stereo unspecified),-76.25,-5.57
COc1cccc(CCC2CCCN(C(=O)c3n[nH]c4c3CCC4)C2)c1 (stereo unspecified),-14.85,40.68
CCOc1ccnc(N2CCN(C(=O)c3cn[nH]c3CC)CC2)n1,-36.34,21.48